Source: ChEMBL document CHEMBL4665673, “Monomeric Targeted Protein Degraders” (J Med Chem, 2020)

Assay: cells
Conditions: Homo sapiens, SKNBE2, 72 h

COc1cc(Nc2ncc3c(n2)-c2ccc(Cl)cc2C(c2c(F)cccc2OC)=NC3)ccc1C(=O)O [ALISERTIB] showed an EC50 of 40.9 nM.
